Measurements: article PMC6838077

By UniProt entry, the sequences of proteins in these tests, tags left out.
UniProt P10276: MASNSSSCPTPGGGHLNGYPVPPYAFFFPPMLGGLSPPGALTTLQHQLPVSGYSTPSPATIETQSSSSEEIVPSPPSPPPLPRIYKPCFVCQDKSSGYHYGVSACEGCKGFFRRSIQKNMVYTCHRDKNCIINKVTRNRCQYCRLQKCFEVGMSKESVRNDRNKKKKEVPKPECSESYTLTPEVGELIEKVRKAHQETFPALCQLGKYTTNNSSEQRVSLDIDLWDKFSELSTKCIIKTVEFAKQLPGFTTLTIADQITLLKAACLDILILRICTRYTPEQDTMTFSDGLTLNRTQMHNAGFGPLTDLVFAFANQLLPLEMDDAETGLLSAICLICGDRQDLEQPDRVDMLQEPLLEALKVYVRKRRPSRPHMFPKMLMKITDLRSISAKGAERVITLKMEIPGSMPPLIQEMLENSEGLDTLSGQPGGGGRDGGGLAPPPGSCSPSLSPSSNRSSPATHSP

Molecular target: RARA-DDK protein (epitope-tagged retinoic acid receptor alpha) (UniProt P10276)
Assay: affinity purification with mass spectrometry; anti-DDK immunoprecipitate of RARA-DDK from HEK293 whole cell lysate, no retinoic acid treatment; SDS-PAGE, in-gel tryptic digestion, LC-MS/MS

binding: binds
Substance: valosin-containing protein (VCP/p97/Cdc48), endogenous in HEK293 (from UniProt P55072 1-806)

Results are given in words; binding and its absence hold for the method and conditions named. In cells and extracts the contact can be indirect. Here binding means that the protein was enriched with, or labelled near, the bait; the list need not be complete.
